Laboratory results as given in PMC10669480.
Where a chain is given by its changes, count along the chain named. Numbers in names are those of the source. Results are given in words; binding and its absence hold for the method and conditions named. In cells and extracts the contact can be indirect. Some results given as binding are weak or reduced against the parent protein; the word gives no strength. Sequences can lack the tags named with a protein.

Target: T1, Human Chloride Channel Accessory 2 (CLCA2), wildtype precursor (human) (UniProt Q9UQC9)
T1 sequence: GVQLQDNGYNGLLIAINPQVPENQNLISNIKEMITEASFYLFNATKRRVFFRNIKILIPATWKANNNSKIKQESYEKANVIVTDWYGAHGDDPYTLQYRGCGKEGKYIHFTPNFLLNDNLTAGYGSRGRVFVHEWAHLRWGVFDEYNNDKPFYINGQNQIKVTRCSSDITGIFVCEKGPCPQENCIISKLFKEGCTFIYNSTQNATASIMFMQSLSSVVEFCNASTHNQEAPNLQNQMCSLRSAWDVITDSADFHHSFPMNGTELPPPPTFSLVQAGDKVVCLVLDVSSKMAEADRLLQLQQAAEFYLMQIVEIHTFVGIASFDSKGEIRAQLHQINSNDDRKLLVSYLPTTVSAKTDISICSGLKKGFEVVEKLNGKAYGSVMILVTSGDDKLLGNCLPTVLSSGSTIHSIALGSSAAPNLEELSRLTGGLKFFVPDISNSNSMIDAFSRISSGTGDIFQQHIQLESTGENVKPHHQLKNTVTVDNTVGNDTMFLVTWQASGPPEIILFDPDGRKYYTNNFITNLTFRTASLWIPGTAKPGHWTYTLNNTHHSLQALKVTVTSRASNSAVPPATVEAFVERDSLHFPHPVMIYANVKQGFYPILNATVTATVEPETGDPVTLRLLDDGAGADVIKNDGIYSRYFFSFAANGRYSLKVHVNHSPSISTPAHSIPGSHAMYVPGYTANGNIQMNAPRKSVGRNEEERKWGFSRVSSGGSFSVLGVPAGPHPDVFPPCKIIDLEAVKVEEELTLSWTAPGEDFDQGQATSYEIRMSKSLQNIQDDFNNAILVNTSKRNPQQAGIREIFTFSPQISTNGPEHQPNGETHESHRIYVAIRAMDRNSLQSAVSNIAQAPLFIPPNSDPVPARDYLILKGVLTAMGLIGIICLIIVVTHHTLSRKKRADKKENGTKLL
Experiment: co-IP; HEK293T co-transfected or singly transfected; lysates after 48 h in 25 mM Tris pH 7.4, 150 mM NaCl, 2.5 mM MgCl2, 0.5 mM EDTA, 0.5% NP40, 1 mM DTT, 5% glycerol, 1% aprotinin; IP with anti-Myc or anti-Flag antibody and Protein A-Sepharose; blots probed with anti-Myc or anti-Flag

B1: Human Chloride Channel Accessory 2 (CLCA2), wildtype precursor (protein, UniProt Q9UQC9 32-943)
chain: T1 sequence
  binding: binds

B2: CLCA2 E165Q mutant, Flag-tagged (protein, UniProt Q9UQC9 32-943)
chain: T1 sequence with E134Q
  binding: binds
